Test results reported in PMC6116164.
No constants are given. Whether binding was seen depends on the method and setting. For some assays here: In cells and extracts the contact can be indirect. Some entries that bind do so weakly or less than the wild type. Sequences can lack the tags named with a protein.

T1: ATH1-BD (Arabidopsis Thaliana Homeobox fused to the DNA binding domain) (Arabidopsis thaliana) (UniProt P48731)
T1 sequence: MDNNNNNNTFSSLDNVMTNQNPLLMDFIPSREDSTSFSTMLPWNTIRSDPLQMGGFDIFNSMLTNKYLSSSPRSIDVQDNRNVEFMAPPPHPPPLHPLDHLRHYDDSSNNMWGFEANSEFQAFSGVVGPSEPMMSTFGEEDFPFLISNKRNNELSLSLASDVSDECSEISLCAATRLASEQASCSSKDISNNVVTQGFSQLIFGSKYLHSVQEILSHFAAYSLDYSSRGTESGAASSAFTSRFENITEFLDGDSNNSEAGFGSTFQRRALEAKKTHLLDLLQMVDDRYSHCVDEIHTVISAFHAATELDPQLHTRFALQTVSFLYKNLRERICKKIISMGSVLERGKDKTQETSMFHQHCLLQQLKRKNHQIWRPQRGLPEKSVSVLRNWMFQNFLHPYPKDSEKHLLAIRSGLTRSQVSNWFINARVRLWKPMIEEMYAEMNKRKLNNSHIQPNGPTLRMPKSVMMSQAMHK

T2: ATH1-YFPN (ATH1 fused to the N-terminal fragment of yellow fluorescent protein) (Arabidopsis thaliana) (UniProt P48731)
T2 sequence: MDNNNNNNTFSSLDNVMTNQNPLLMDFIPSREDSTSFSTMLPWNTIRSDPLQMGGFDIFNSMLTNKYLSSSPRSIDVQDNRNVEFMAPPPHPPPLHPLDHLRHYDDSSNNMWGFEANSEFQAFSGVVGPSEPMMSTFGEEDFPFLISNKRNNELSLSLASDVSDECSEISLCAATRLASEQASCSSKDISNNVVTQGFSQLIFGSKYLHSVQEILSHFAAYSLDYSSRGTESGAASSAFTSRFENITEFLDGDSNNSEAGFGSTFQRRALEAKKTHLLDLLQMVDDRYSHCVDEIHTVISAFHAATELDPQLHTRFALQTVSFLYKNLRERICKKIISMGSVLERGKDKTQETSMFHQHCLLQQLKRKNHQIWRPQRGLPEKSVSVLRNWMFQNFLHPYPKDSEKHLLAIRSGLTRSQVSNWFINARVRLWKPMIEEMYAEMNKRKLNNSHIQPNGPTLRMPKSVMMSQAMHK


Key:
[1] = target: T1, ATH1-BD (Arabidopsis Thaliana Homeobox fused to the DNA binding domain) (Arabidopsis thaliana); test: two-hybrid; BD fusions of ATH1 or its HD or SKY-BELL domain co-expressed with AD-OFP1 in yeast Y2HGold; growth on SD QDO (-Leu, -His, -Trp, -Ade) after selection on SD DDO (-Trp, -Leu); three replicates
[2] = target: T2, ATH1-YFPN (ATH1 fused to the N-terminal fragment of yellow fluorescent protein) (Arabidopsis thaliana); test: split reporter; BiFC: YFPC and YFPN fusions co-expressed in Arabidopsis thaliana protoplasts after polyethylene glycol transfection; yellow fluorescence read by confocal microscopy

binding [1] | binding [2] | Binder
binds | – | OFP1-AD (Ovate Family Protein1 fused to the activation domain) (protein, UniProt Q9LZW2 1-270) MGNNYRFKLSELIPNAWFYKLRDMSKSKKKNLQSQPNSTTSKKKHHAVPTPTSTTPLSPRPPRRPSHSSKAPPSHPPRKSSGNRLRHRATVDSKSSTTSGDSTTTETGSFSPDFRSDQVLLPDESLTGSWHSPCSSKLSKTATFTPPPELELRPIITKTAATARKTAVNSPAGVRLRMRSPRISVSSSARRSGSSARRSRAVVKASVDPKRDFKESMEEMIAENKIRATKDLEELLACYLCLNSDEYHAIIINVFKQIWLDLNLPPPHSK
– | binds | OFP1-YFPC (OFP1 fused to the C-terminal fragment of yellow fluorescent protein) (protein, UniProt Q9LZW2 1-270) MGNNYRFKLSELIPNAWFYKLRDMSKSKKKNLQSQPNSTTSKKKHHAVPTPTSTTPLSPRPPRRPSHSSKAPPSHPPRKSSGNRLRHRATVDSKSSTTSGDSTTTETGSFSPDFRSDQVLLPDESLTGSWHSPCSSKLSKTATFTPPPELELRPIITKTAATARKTAVNSPAGVRLRMRSPRISVSSSARRSGSSARRSRAVVKASVDPKRDFKESMEEMIAENKIRATKDLEELLACYLCLNSDEYHAIIINVFKQIWLDLNLPPPHSK
